Assay results as given in article PMC8264791.
Results are given in words; binding and its absence hold for the method and conditions named. In cells and extracts the contact can be indirect. Here binding means that the protein was enriched with, or labelled near, the bait; the list need not be complete. Tags and fused reporters may be left off the sequences shown.

T1: GFP-SKD1 (SUPPRESSOR OF K(+) TRANSPORT GROWTH DEFECT 1) (A. thaliana) (UniProt Q9ZNT0)
T1 sequence: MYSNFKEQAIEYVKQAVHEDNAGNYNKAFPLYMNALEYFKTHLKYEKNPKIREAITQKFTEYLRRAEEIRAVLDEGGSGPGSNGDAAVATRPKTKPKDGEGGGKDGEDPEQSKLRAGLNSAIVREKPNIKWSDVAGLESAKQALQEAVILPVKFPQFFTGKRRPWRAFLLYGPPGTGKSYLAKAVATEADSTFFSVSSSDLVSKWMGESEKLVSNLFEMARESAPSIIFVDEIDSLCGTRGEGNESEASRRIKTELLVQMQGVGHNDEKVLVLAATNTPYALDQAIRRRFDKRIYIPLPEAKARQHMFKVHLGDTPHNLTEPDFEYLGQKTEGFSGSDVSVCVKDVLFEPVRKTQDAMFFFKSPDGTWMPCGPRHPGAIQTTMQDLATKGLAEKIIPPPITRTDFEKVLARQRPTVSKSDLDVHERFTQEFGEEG


biological target: T1, GFP-SKD1 (SUPPRESSOR OF K(+) TRANSPORT GROWTH DEFECT 1) (A. thaliana); assay: affinity purification with mass spectrometry; GFP-SKD1 immunoprecipitated with the GFP Isolation kit (Miltenyi Biotec; anti-GFP magnetic beads) from extracts of rosette leaves of 35S::GFP-SKD1 plants, heat-treated or kept at RT; on-bead digest, LC-MS/MS; 35S::YFP line as negative control; 3 replicates each

Binder | binding
VACUOLAR PROTEIN SORTING 18 (protein, UniProt F4IDS7 1-988) MDQGRQVFSVDLLERYATKNRGMITCMAAGNDVIVLGTSKGWIIRYDFGVGSSNDIDLAVGRTGEQSIHKVFVDPGGSHCIATVTGVGGAETFYTHAKWLKPRVLSRLKGLLVNAVAWNRQQITEVSTKEIILGTQDGQLFEMAVDEKDKREKYIKFLFELEELPEAFKALQMETANISSGMRYYVMAVTPTRLYSFTGIGTLESVFASYKERAVHFMELPGEIPNSELHFFIKQRRAVHFAWLSGTGIYHGGLNFGAQHSYPNGDENFVENKALLDYSKLSDGTEAVKPGSMALSEYHFLLLIGNKVKVVNRISEQIIEELQFDITSDSVSRGIIGLCSDASANVFYAYDQNSIFQVSVIDEGRDMWKVYLDLKVYAAALANCRDPLQRDQVYLVQAESAFTDKEYLRAASFYAKINYVISFEEVTLKFISINEPEALRTFLLHKLDNLSKDDKCQITMISTWATELYLDKINRLLLEDDTAIENRDSEYHSVIQEFRAFMSDCKDELDEATTVKILESYGRVEELVYFANLKEQYEIVVLHYIQQGEAKKALEVLQKSSVSVELQYQFAPELIMLDAYETVESWMANKNLNPRRLITAMMRYSSGPHAKNETHEVIKYLEFCVHRLHNEDPGIHSLLLSLYAKQEDDGALLRFLQCKFGKGRENGPEFFYDPKYALRLCLKERRTRACVHIYSMMSMHEEAVALALQIDPELAMAEADKVEDDEDLRKKLWLMVAKHVVKQEKGAKRENIRKAIAFLKETDGLLKIEDILPFFPDFALIDDFKEAICSSLEDYNKQIEQLKEEMNDATRGADNIRNDISALTQRYAVIDRDEECGVCKRKILMMSGDFRMAQGYSSAGPLAPFYVFPCGHSFHAQCLITHVTSCAHEEQAEHILDLQKQLTLLGSETRRDINGNRSDEPITSTTTADKLRSELDDAIASECPFCGELMINEITLPFIKPEDSQYSTSWDLRSETNLANQRTISLPV | binds
VACUOLAR PROTEIN SORTING 41 (protein, UniProt P93043 1-980) MAAVPPENGVDGDDEREEEEEDEEEEEEEEEEENGDEAEEEPRLKYQRMGGNVPALLSNDAASCIAVAARMIALGTHDGTVRILDLLGNQVKEFRAHTAPVNDINFDTEGEYIGSCSDDGSVVINSLFTDDEKMKFDYHRPMKAISLDPDYTKKQSKRFVAGGLAGHLYMNSKKWFGNKDQVLHSGEGPIHSVKWRGSLIAWANDVGVKVYDTAKDQRVTFIEKPRGSPRPEALLPHLVWQDDTLLVIGWGTSVKIASIKSDQQQTGTFRQIQMSSLTQVDIVASFQTSYYISGIAPFGDSLVILAYIPIEGDGEKEFSSTTTLSRQGNAQRPEIRIVSWNNDELTMDALPVHGFEHYKAKDYSLAHAPFPGSSYAGGQWAAGDEPLYYIVSPKDVVIAKPRDAEDHINWLLQHGFHEKALAAVEASEGRTELIDKVGAGYLDHLIVERKYAEAASLCPKLLRGSASAWERWVFHFAQLRQLPVLVPYMPTDNPRLKDTVYEVALVALATNPSYHKELLSAVKSWPRSVYSALTVISAIEPQLNTSSMTDALKEALAELYVIDGQYQKAFSLYADLLKPEVFDFIEKYSLHEAIRGKVVQLMLLDCKRATVLFIQNRDLIPPSEVVPQLLKAGKNPQVLKAGKKCDSRYYLYLYLHALFEVSHDTGKDFHDMQVELYAEYDTKMLLPFLRSSQHYKLEKAYELCVKKDFLREQVFVLGRMGNAKQALAVIINKLGDIEEAVEFVSMQHDDDLWEELIKQCLNKPEMVGLLLEHTVGNLDPLYIVNMVPNGLEIPRLRDRLVKIVTDYRTETSLRHGCNDILKTDIVNLLVKCFNEARRGVCLSHEDDDSRAKREDNNRSSFSQRMVVDKSLSIKMTEVKSKTRGDTRCCMCFDPVSIRGDTVVVFFCCHAYHETCLMDAAFSNNNHKTTKGSSGYEYSYDNGVDEEEEDEEEDEDGDGDRPGRSRLRCILCTTAAAASAR | binds
VACUOLELESS1 (protein, UniProt Q93VQ0 1-858) MANVSVAAEWQLLYDRYYRKPEIYQMKWKHVDLSRNKVACASFGGPIAVIRDDSKIVQLYAESALRKLRIFNSAGILLSETVWKHPGGRLIGMSWSDDQTLICIVQDGTIYRYNIHAELIEPNMSMGQECFEQNVVECVFWGNGVVCLTEGGQLICIFDFKTMKPSKLPDVPGLAEDDLLQPICLTVREPKYTMSGIAEVLVAVGDDIFVVEEDMVQTIRFDEPSVDDSEMQNDDSGNLIGVVQKMIVSPNGKFLTLFTHDGRIVVVDMETKQIAIDYSCESALPPQQMAWCGMDSVLLYWDEDLMMVGPVGDPVHYFYDEPIILIPECDGVRILSNTNLEFLQRVPDSTESIFKIGSTSPAALLYDALDHFDRRSAKADENLRLIRSSLSEAVESCIDAAGHEFDVTRQRALLRAASYGQAFCSNFQRERVQETCRTLRVLNAVRDPAIGIPLSIQQYKLLTPVVLISRLINANCHLLALRISEYLDMNKEVVIMHWACAKITASPSTPDSHLLEILLDKLQLCKGISYAAVATHADNCGRRKLAAMLVEHEPRSTKQVPLLLSIGEEDTALVKATESGDTDLVYLVIFHIWQKRPPLEFFAMIQGRVLARDLFVAYARCHKHEFLKDFFLSTGQIHEVAFLLWKESWDMGKNPMASKGSPLHGPRIKLIEKARNLFSQTKEHTFESKAAEEHAKLLKIQHELEASTKQAIFVDSSINDTIRTCIVLGNNRAAIKVKTEFKVSDKRWYWLKAFALATIKDWAALEKFSKEKRPPMGFRPFVEACIDADEKAEALKYIPKLSDLVERGEAYARIGMAKEAADCAAQANDGGELLERFRKTFVQNAIFDTLLMPFQGAS | binds
14-3-3-like protein GF14 omega (protein, UniProt Q01525 1-259) MASGREEFVYMAKLAEQAERYEEMVEFMEKVSAAVDGDELTVEERNLLSVAYKNVIGARRASWRIISSIEQKEESRGNDDHVTAIREYRSKIETELSGICDGILKLLDSRLIPAAASGDSKVFYLKMKGDYHRYLAEFKTGQERKDAAEHTLAAYKSAQDIANAELAPTHPIRLGLALNFSVFYYEILNSPDRACNLAKQAFDEAIAELDTLGEESYKDSTLIMQLLRDNLTLWTSDMQDDAADEIKEAAAPKPTEEQQ | binds
ROOTS CURL IN NPA 1 (protein, UniProt Q38845 1-588) MAMVDEPLYPIAVLIDELKNDDIQLRLNSIRRLSTIARALGEERTRKELIPFLSENSDDDDEVLLAMAEELGVFIPFVGGIEFAHVLLPPLESLCTVEETCVREKAVESLCKIGSQMKENDLVESFVPLVKRLAGGEWFAARVSACGIFHVAYQGCTDVLKTELRATYSQLCKDDMPMVRRAAASNLGKFATTVESTFLIAEIMTMFDDLTKDDQDSVRLLAVEGCAALGKLLEPQDCVARILPVIVNFSQDKSWRVRYMVANQLYELCEAVGPDCTRTDLVPAYVRLLRDNEAEVRIAAAGKVTKFCRLLNPELAIQHILPCVKELSSDSSQHVRSALASVIMGMAPILGKDSTIEHLLPIFLSLLKDEFPDVRLNIISKLDQVNQVIGIDLLSQSLLPAIVELAEDRHWRVRLAIIEYVPLLASQLGIGFFDDKLGALCMQWLQDKVYSIREAAANNLKRLAEEFGPEWAMQHLVPQVLDMVNNPHYLHRMMVLRAISLMAPVMGSEITCSKFLPVVVEASKDRVPNIKFNVAKLLQSLIPIVDQSVVDKTIRQCLVDLSEDPDVDVRYFANQALNSIDGSTAAQS | binds
PLASMA MEMBRANE … PROTEIN 1-1 (protein, UniProt P61837 1-286) MEGKEEDVRVGANKFPERQPIGTSAQSDKDYKEPPPAPFFEPGELSSWSFWRAGIAEFIATFLFLYITVLTVMGVKRSPNMCASVGIQGIAWAFGGMIFALVYCTAGISGGHINPAVTFGLFLARKLSLTRALYYIVMQCLGAICGAGVVKGFQPKQYQALGGGANTVAHGYTKGSGLGAEIIGTFVLVYTVFSATDAKRNARDSHVPILAPLPIGFAVFLVHLATIPITGTGINPARSLGAAIIYNKDHSWDDHWVFWVGPFIGAALAALYHVVVIRAIPFKSRS | binds
PLASMA MEMBRANE … PROTEIN 1-3 (protein, UniProt Q08733 1-286) MEGKEEDVRVGANKFPERQPIGTSAQTDKDYKEPPPAPFFEPGELSSWSFYRAGIAEFIATFLFLYITVLTVMGVKRAPNMCASVGIQGIAWAFGGMIFALVYCTAGISGGHINPAVTFGLFLARKLSLTRAVFYIVMQCLGAICGAGVVKGFQPNPYQTLGGGANTVAHGYTKGSGLGAEIIGTFVLVYTVFSATDAKRSARDSHVPILAPLPIGFAVFLVHLATIPITGTGINPARSLGAAIIYNKDHAWDDHWIFWVGPFIGAALAALYHQLVIRAIPFKSRS | binds
VACUOLAR PROTON ATPase SUBUNIT A3 (protein, UniProt Q8W4S4 1-821) MAESGGGGGCCPPMDLMRSETMQLVQLIVPMESAHLTVSYLGDLGLVQFKDLNSEKSPFQRTYAAQIKRCGEMARKIRFFRDQMSKAGVPAKEMQGKENDIDLDDVEVKLGELEAELVEINANNDKLQRSYNELMEYKLVLQKAGEFFSSAHRSAADQQRETESQQAGEDLLESPLLQEEKSIDSTKQVKLGFLTGLVPREKSMVFERILFRATRGNIFIRQTVIEEPVIDPNSGEKAEKNVFVVFYSGERAKSKILKICEAFGANRYPFSEDLGRQAQMITEVSGRLSELKTTIDAGLGQRNILLQTIGDKFELWNLKVRKEKAIYHTLNMLSLDVTKKCLVAEGWSPVFASREIQDALQRAAVDSNSQVGSIFQVLRTKESPPTYFRTNKFTSAIQEIVDAYGVAKYQEANPGVFTIVTFPFLFAVMFGDWGHGICILLATMYLILKEKKLASQKLGDIMEMAFGGRYVILMMSLFSIYTGLIYNEFFSIPFPLFAPSAYDCRDVSCSEATTIGLIKVRDTYPFGLDPVWHGSRSELPFLNSLKMKMSILLGVSQMNLGIIMSYFNARFFKSSVNIWFQFIPQMIFLNSLFGYLSVLIIIKWCTGSQADLYHVMIYMFLSPMDELGENQLFPHQKTLQLVLLFLALVSVPCMLLPKPFILKKQHEARHQGQAYAPLDETDESLHVETNGGGSHGHEEFEFSEIFVHQLIHTIEFVLGAVSNTASYLRLWALSLAHSELSSVFYEKVLLLAWGYNNPLILIVGVLVFIFATVGVLLVMETLSAFLHALRLHWVEFQNKFYEGDGYKFAPFTFIFTANEDE | binds
VACUOLAR PROTON ATPase SUBUNIT D1 (protein, UniProt Q9LJI5 1-351) MYGFEALTFNIHGGYLEAIVRGHRAGLLTTADYNNLCQCENLDDIKMHLSATKYGSYLQNEPSPLHTTTIVEKCTLKLVDDYKHMLCQATEPMSTFLEYIRYGHMIDNVVLIVTGTLHERDVQELIEKCHPLGMFDSIATLAVAQNMRELYRLVLVDTPLAPYFSECLTSEDLDDMNIEIMRNTLYKAYLEDFYKFCQKLGGATAEIMSDLLAFEADRRAVNITINSIGTELTREDRKKLYSNFGLLYPYGHEELAICEDIDQVRGVMEKYPPYQAIFSKMSYGESQMLDKAFYEEEVRRLCLAFEQQFHYAVFFAYMRLREQEIRNLMWISECVAQNQKSRIHDSVVYMF | binds
